Data as given in PubChem BioAssay AID743121 (NCATS, 2013)

- Purpose: 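Partners whose loss is lethal together with topoisomerase I blockade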 (primary screen)
- System: MDA-MB-231 cells, a human breast cancer line
- Knock-down reagent: single siRNA against human genes, 20 nM siRNA (0.8 pmol per well)
- Time to read-out: 120 h (drug added 48 h after transfection, read 72 h later)
- Treatment: camptothecin 20 nM (about EC30) for 72 h; vehicle 0.1% DMSO in parallel plates
- Detection: 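Cell viability by ATP luminescence (CellTiter-Glo) as % of non-targeting siRNA wells, and the log2 ratio of viability without drug over viability with camptothecin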
- Reading the numbers: log2 vehicle/camptothecin viability: higher = stronger sensitisation to camptothecin; viability with camptothecin: higher = more viable cells
- Call rule: 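Each gene scored by redundant siRNA activity (RSA) over its individual siRNA ratios; a gene is called active at p < 0.001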
The deposit covers about 26,000 reagents; this is a part drawn at random. 167 of all reagents (0.63%) count as active. 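Calls are per gene from RSA p-values that are not deposited; an individual active-marked siRNA can sensitise only weakly.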 The numbers tell different reagents against one gene apart. Further read-outs or replicates are left out here.

| target gene | reagent no. | log2 vehicle/camptothecin viability | viability with camptothecin (% of control) | call |
| --- | --- | --- | --- | --- |
| NCOR1P1 (NCOR1 pseudogene 1) | 1 | -0.0682 | 106 | inactive |
| NCOR1P1 (NCOR1 pseudogene 1) | 2 | -0.154 | 92.1 | inactive |
| NCOR1P1 (NCOR1 pseudogene 1) | 3 | -0.179 | 111 | inactive |
| NCOR1P1 (NCOR1 pseudogene 1) | 4 | -0.144 | 131 | inactive |
| PIKFYVE (phosphoinositide kinase, FYVE-type zinc finger containing) | 1 | -0.582 | 93.2 | inactive |
| PIKFYVE (phosphoinositide kinase, FYVE-type zinc finger containing) | 2 | -0.209 | 82.6 | inactive |
| PIKFYVE (phosphoinositide kinase, FYVE-type zinc finger containing) | 3 | -0.412 | 56.4 | inactive |
| PIKFYVE (phosphoinositide kinase, FYVE-type zinc finger containing) | 4 | -0.18 | 82.7 | inactive |
| USP19 (ubiquitin specific peptidase 19) | 1 | 0.6 | 52 | inactive |
| USP19 (ubiquitin specific peptidase 19) | 2 | -0.152 | 40.4 | inactive |
| USP19 (ubiquitin specific peptidase 19) | 3 | -0.22 | 82.3 | inactive |
| USP19 (ubiquitin specific peptidase 19) | 4 | -0.368 | 86.2 | inactive |
| LAMA4 (laminin subunit alpha 4) | 1 | 0.264 | 72.3 | inactive |
| LAMA4 (laminin subunit alpha 4) | 2 | 0.0454 | 102 | inactive |
| LAMA4 (laminin subunit alpha 4) | 3 | -0.32 | 119 | inactive |
| LAMA4 (laminin subunit alpha 4) | 4 | 0.0147 | 101 | inactive |
| CACNB3 (calcium voltage-gated channel auxiliary subunit beta 3) | 1 | -0.707 | 92.4 | inactive |
| CACNB3 (calcium voltage-gated channel auxiliary subunit beta 3) | 2 | 0.408 | 37.1 | inactive |
| CACNB3 (calcium voltage-gated channel auxiliary subunit beta 3) | 3 | -0.526 | 68.4 | inactive |
| PLAAT4 (phospholipase A and acyltransferase 4) | 1 | -0.291 | 62.9 | inactive |
| PLAAT4 (phospholipase A and acyltransferase 4) | 2 | -0.245 | 68.7 | inactive |
| PLAAT4 (phospholipase A and acyltransferase 4) | 3 | -0.0313 | 101 | inactive |
| PLAAT4 (phospholipase A and acyltransferase 4) | 4 | -0.323 | 102 | inactive |

6 neighbouring reagents from above, quoted:
| target gene | reagent no. | log2 vehicle/camptothecin viability | viability with camptothecin (% of control) | call |
| --- | --- | --- | --- | --- |
| NCOR1P1 (NCOR1 pseudogene 1) | 1 | -0.0682 | 106 | inactive |
| NCOR1P1 (NCOR1 pseudogene 1) | 2 | -0.154 | 92.1 | inactive |
| NCOR1P1 (NCOR1 pseudogene 1) | 3 | -0.179 | 111 | inactive |
| NCOR1P1 (NCOR1 pseudogene 1) | 4 | -0.144 | 131 | inactive |
| PIKFYVE (phosphoinositide kinase, FYVE-type zinc finger containing) | 1 | -0.582 | 93.2 | inactive |
| PIKFYVE (phosphoinositide kinase, FYVE-type zinc finger containing) | 2 | -0.209 | 82.6 | inactive |

Continued.
| target gene | reagent no. | log2 vehicle/camptothecin viability | viability with camptothecin (% of control) | call |
| --- | --- | --- | --- | --- |
| HABP2 (hyaluronan binding protein 2) | 1 | -0.187 | 115 | inactive |
| HABP2 (hyaluronan binding protein 2) | 2 | 0.511 | 9.25 | inactive |
| HABP2 (hyaluronan binding protein 2) | 3 | -0.242 | 90.4 | inactive |
| HABP2 (hyaluronan binding protein 2) | 4 | -0.0901 | 46.1 | inactive |
| BRAP (BRCA1 associated protein) | 1 | -0.194 | 102 | inactive |
| BRAP (BRCA1 associated protein) | 2 | -0.429 | 77.9 | inactive |
| BRAP (BRCA1 associated protein) | 3 | -0.286 | 94.5 | inactive |
| BRAP (BRCA1 associated protein) | 4 | -0.0361 | 60.6 | inactive |
| RAP2B (RAP2B, member of RAS oncogene family) | 1 | -0.0743 | 71.3 | inactive |
| RAP2B (RAP2B, member of RAS oncogene family) | 2 | -0.481 | 70.5 | inactive |
| RAP2B (RAP2B, member of RAS oncogene family) | 3 | -0.0705 | 105 | inactive |
| RAP2B (RAP2B, member of RAS oncogene family) | 4 | -0.256 | 103 | inactive |
| DLG1 (discs large MAGUK scaffold protein 1) | 1 | -0.041 | 92.7 | inactive |
| DLG1 (discs large MAGUK scaffold protein 1) | 2 | -0.0724 | 43.1 | inactive |
| DLG1 (discs large MAGUK scaffold protein 1) | 3 | -0.417 | 83.8 | inactive |
| DLG1 (discs large MAGUK scaffold protein 1) | 4 | -0.191 | 110 | inactive |
| DLG1 (discs large MAGUK scaffold protein 1) | 5 | 0.626 | 57.9 | inactive |
| DLG1 (discs large MAGUK scaffold protein 1) | 6 | -0.485 | 66.1 | inactive |
| QARS1 (glutaminyl-tRNA synthetase 1) | 1 | -0.24 | 56.7 | inactive |
| QARS1 (glutaminyl-tRNA synthetase 1) | 2 | -0.285 | 50.6 | inactive |
| QARS1 (glutaminyl-tRNA synthetase 1) | 3 | -0.276 | 68 | inactive |
| QARS1 (glutaminyl-tRNA synthetase 1) | 4 | -0.306 | 75.8 | inactive |
| HTR4 (5-hydroxytryptamine receptor 4) | 1 | -0.453 | 53.7 | inactive |
| HTR4 (5-hydroxytryptamine receptor 4) | 2 | -0.235 | 93.7 | inactive |
| HTR4 (5-hydroxytryptamine receptor 4) | 3 | 0.0139 | 69 | inactive |
| HTR4 (5-hydroxytryptamine receptor 4) | 4 | 0.293 | 57.2 | inactive |
| ZBTB16 (zinc finger and BTB domain containing 16) | 1 | -0.144 | 88.9 | inactive |
| ZBTB16 (zinc finger and BTB domain containing 16) | 2 | -0.132 | 109 | inactive |
| ZBTB16 (zinc finger and BTB domain containing 16) | 3 | -0.228 | 45.3 | inactive |
| ZBTB16 (zinc finger and BTB domain containing 16) | 4 | -0.14 | 60.8 | inactive |
| PDXK (pyridoxal kinase) | 1 | -0.0136 | 80.1 | inactive |
| PDXK (pyridoxal kinase) | 2 | 0.151 | 94.4 | inactive |
| PDXK (pyridoxal kinase) | 3 | -0.623 | 80.5 | inactive |
| PDXK (pyridoxal kinase) | 4 | -0.403 | 90.1 | inactive |
| ACADS (acyl-CoA dehydrogenase short chain) | 1 | -0.416 | 107 | inactive |
| ACADS (acyl-CoA dehydrogenase short chain) | 2 | 0.119 | 68 | inactive |
| ACADS (acyl-CoA dehydrogenase short chain) | 3 | -0.284 | 87.3 | inactive |
| TSSK2 (testis specific serine kinase 2) | 1 | 0.122 | 63.1 | inactive |
| TSSK2 (testis specific serine kinase 2) | 2 | -0.214 | 86 | inactive |
| TSSK2 (testis specific serine kinase 2) | 3 | -0.126 | 106 | inactive |
| TSSK2 (testis specific serine kinase 2) | 4 | -0.245 | 110 | inactive |
| PDP1 (pyruvate dehydrogenase phosphatase catalytic subunit 1) | 1 | -0.177 | 92.1 | inactive |
| PDP1 (pyruvate dehydrogenase phosphatase catalytic subunit 1) | 2 | 0.16 | 67 | inactive |
| PDP1 (pyruvate dehydrogenase phosphatase catalytic subunit 1) | 3 | -0.112 | 106 | inactive |
| PDP1 (pyruvate dehydrogenase phosphatase catalytic subunit 1) | 4 | 0.0888 | 61.4 | inactive |
